Drawing on paper doi:10.1101/2020.03.01.972125, this text covers binding for two substances.

Protein sequences, listed by entry. Tags and fused reporters are not part of them. Residues count along the entry.
UniProt Q10589, residues 1-161: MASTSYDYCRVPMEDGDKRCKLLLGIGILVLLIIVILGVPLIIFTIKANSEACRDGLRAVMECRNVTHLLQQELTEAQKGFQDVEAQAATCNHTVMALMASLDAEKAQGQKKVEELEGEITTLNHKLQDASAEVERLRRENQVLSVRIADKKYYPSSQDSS
UniProt P27449: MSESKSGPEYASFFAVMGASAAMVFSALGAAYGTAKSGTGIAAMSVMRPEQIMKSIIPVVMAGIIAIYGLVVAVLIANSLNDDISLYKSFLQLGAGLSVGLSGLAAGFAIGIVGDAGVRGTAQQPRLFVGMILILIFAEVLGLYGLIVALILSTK

No constants are given. Whether binding was seen depends on the method and setting. Binding seen in cells or lysates may run through a third protein. Some binding calls cover weakened binding; strength is not graded here.

Assay [1] deals with N-terminally HA-tagged human tetherin (human) (UniProt Q10589). The assay is described as follows: co-IP.
The target in assay [2] is C-terminally FLAG-tagged ATP6V0C (UniProt P27449). The assay is described as follows: co-IP.

Regarding “C-terminally FLAG-tagged ATP6V0C (from UniProt P27449 1-155)”, in assay [1], the binding result was “binds”. As to “N-terminally HA-tagged human tetherin (from UniProt Q10589 1-161)”, in assay [2], the binding entry was “binds”.
